# Like-named read-outs stand apart in the source and are kept apart here.
# What was measured:
# HeLa WTβIII cells [1] = assay: SRB assay in βIII-tubulin expressing HeLa WTβIII cells; format: cell-based; conditions: IC50 of βIII-tubulin expressing line / IC50 in parental HeLa
# Protocol: (§1) Compounds 4–8, 10, 12, and 13 were evaluated for their abilities to overcome βIII-tubulin mediated drug resistance using an isogenic HeLa cell line pair (Table 4). […] The Rr values (Table 4) were calculated by dividing the IC50 of the βIII-tubulin expressing line by the IC50 obtained in the parental HeLa cells.
# (§2) The antiproliferative and cytotoxic effects of the compounds in cancer cells were evaluated using the SRB assay as previously described. MDA-MB-435 cells were obtained from the Lombardi Cancer Center of Georgetown University (Washington, DC, USA). SK-OV-3 and HeLa cells were purchased from ATCC. Details about the generation of the SK-OV-3 MDR1-M6/6 and HeLa WTβIII cells were described previously. The IC50 values represent an average of three independent experiments, each conducted using triplicate points.
# (§3) HeLa, A-10, SK-OV-3, and SK-OV-3 MDR1-M6/6 cells were grown in Basal Medium Eagle (Sigma-Aldrich, St. Louis, MO, USA) supplemented with 10% FBS (Hyclone, GE Life Sciences, Logan, UT, USA) 1% GlutaMAX (Gibco, Life Technologies, Waltham, MA, USA) and 50 µg/mL gentamycin (Life Technologies, USA). HeLa WTβIII cells were grown in Dulbecco’s Modified Eagle Medium (Life Technologies) supplemented with 10% FBS and 50 µg/mL gentamycin. MDA-MB-435 cells were maintained in Improved Minimum Essential Medium (Life Technologies) supplemented with 10% FBS and 25 µg/mL gentamycin. All cells were grown at 37 °C in a humidified environment with 5% CO2.
# A-10 cells [2] = assay: Cellular microtubule depolymerization in A-10 cells (immunofluorescence); format: cell-based; conditions: EC50 in A-10 cells / IC50 in MDA-435 cells
# Protocol: (§4) We investigated the microtubule depolymerization and the antiproliferative activities of compounds 4–14 (Table 2). […] We next evaluated the importance of the 4′-OMe group of compound 4 by replacing it with an isosteric 4′-SMe (5). […] Clearly, this further substantiated the importance of an S in the scaffold over an NH.
# The effects of the compounds on cellular microtubules were evaluated in A-10 cells using indirect immunofluorescence microscopy. These cells were obtained from the American Type Culture Collection (ATCC) (Manassas, VA, USA). Cells were treated with the compounds of interest for 18 h, and the cells fixed with cold MeOH and microtubule structures were visualized using a β-tubulin antibody (Sigma-Aldrich, St. Louis, MO, USA). The concentration that caused loss of 50% of the interphase microtubules was defined as the EC50 and calculated as previously described. These values represent an average of at least three independent experiments.
# MDA-MB-435 cells = assay: Antiproliferative SRB assay in MDA-MB-435 cells; format: cell-based, human; conditions: for fold decrease in potency compared to 8: vs 8, antiproliferative and microtubule depolymerizing effects; for fold less potent than 4, antiproliferative effects: vs 4
# Protocol: as §4, §2, §3
# A-10 cells [3] = conditions: EC50 in A-10 cells / IC50 in MDA-435 cells; cited from earlier work
# HeLa WTβIII cells [4] = conditions: cited from earlier work
# SK-OV-3 MDR1-M6/6 cells = conditions: cited from earlier work
# Bovine brain tubulin = assay: Inhibition of purified tubulin assembly (turbidity); format: biochemical; conditions: for fold more potent than standard CA-4, tubulin assembly: vs CA-4
# Protocol: Bovine brain tubulin was purified as described previously. The tubulin assembly assay has been described in detail. Briefly, 1.0 mg/mL of tubulin (10 µM) was preincubated for 15 min at 30 °C in 0.8 M monosodium glutamate (pH of 2 M stock solution adjusted to 6.6 with HCl), varying compound concentrations and 4% (v/v) DMSO as compound solvent. After the preincubation, the reaction mixtures were placed on ice and 0.4 mM GTP was added. The reaction mixtures were transferred to cuvettes at 0 °C in a recording spectrophotometer equipped with an electronic temperature controller. After baselines were established, the temperature was elevated over about 30 s to 30 °C, and changes in turbidity were monitored at 350 nm for 20 min. The compound concentration that caused a 50% reduction in increase in turbidity, interpolated from the values obtained with defined compound concentrations, was defined as the IC50 value. The assay to measure inhibition of [^3H]colchicine binding was described in detail previously. Briefly, 0.1 mg/mL (1.0 µM) tubulin was incubated at 37 °C with 5.0 µM [3H]colchicine and potential inhibitors at 5.0 µM. Incubation was for 10 min, at which point the reaction had reached 40–60% of the maximum colchicine that can be bound in reaction mixtures without inhibitor. The [^3H]colchicine was a product of PerkinElmer, USA. CA-4 was a generous gift of Dr. G. R. Pettit, Arizona State University.
# [5] = tested on: NCI-60 cancer cell line panel; assay: NCI-60 cancer cell line panel (overall); format: cell-based, Human
# Text: Compound 4 had better potency than the lead compound 1 in 50 cancer cell lines. (better by 5 to 6-fold in leukemia, 2 to 17-fold in NSCLC, 2 to 6-fold in colon cancer, 2 to 5-fold in CNS cancer, 2 to 25-fold in melanoma, 2 to 5-fold in ovarian cancer, 2 to 9-fold in renal cancer, 2 to 5-fold in prostate cancer, and 2 to 6-fold in breast cancer compared to lead compound 1).
# HeLa cells = assay: SRB assay in HeLa cells; format: cell-based
# Protocol: as §1, §2, §3
compound,measurement,setting,value
"COc1ccc2c(c1)CCCN2c1nc(C)nc2sc3c(c12)CCCC3 [Compound 12, 4-(6-Methoxy-3,4-dihydroquinolin-1(2H)-yl)-2-methyl-5,6,7,8-tetrahydrobenzo[4,5]thieno[2,3-d]pyrimidine]",Rr Value (WT β3/HeLa),HeLa WTβIII cells [1],1.1
same,EC50/IC50 Ratio,A-10 cells [2],1.2
same,fold decrease in potency compared to 8,MDA-MB-435 cells,2.3–3 fold
"CC(=O)O[C@H]1C(=O)[C@@]2(C)[C@H]([C@H](OC(=O)c3ccccc3)[C@]3(O)C[C@H](OC(=O)[C@H](O)[C@@H](NC(=O)c4ccccc4)c4ccccc4)C(C)=C1C3(C)C)[C@]1(OC(C)=O)CO[C@@H]1C[C@@H]2O [Paclitaxel, paclitaxel, reference compound]",Rr Value (WT β3/HeLa),HeLa WTβIII cells [1],8.6
CSc1ccc(N(C)c2nc(N)nc3[nH]c4ccccc4c23)cc1 [Compound 2],EC50/IC50 Ratio,A-10 cells [3],12
same,Rr Value (WT β3/HeLa),HeLa WTβIII cells [4],0.7
same,Rr Value (M6/6/SK-OV-3),SK-OV-3 MDR1-M6/6 cells,1
"COc1ccc(N(C)c2nc(N)nc3sc4c(c23)CCCC4)cc1 [Compound 4, N4-(4-methoxyphenyl)-N4-methyl-5,6,7,8-tetrahydrobenzo[4,5]thieno[2,3-d]pyrimidine-2,4-diamine]",Rr Value (WT β3/HeLa),HeLa WTβIII cells [1],0.8
same,EC50/IC50 Ratio,A-10 cells [2],2.2
same,fold more potent than lead 1 as inhibitor of tubulin assembly,Bovine brain tubulin; vs 1,2 fold
same,"fold better potency than lead compound 1, NCI-60",[5]; CNS cancer,2 to 5 fold
same,"fold better potency than lead compound 1, NCI-60",[5]; NSCLC,2 to 17 fold
same,"fold better potency than lead compound 1, NCI-60",[5]; breast cancer,2 to 6 fold
same,"fold better potency than lead compound 1, NCI-60",[5]; colon cancer,2 to 6 fold
same,"fold better potency than lead compound 1, NCI-60",[5]; leukemia,5 to 6 fold
same,"fold better potency than lead compound 1, NCI-60",[5]; melanoma,2 to 25 fold
same,"fold better potency than lead compound 1, NCI-60",[5]; ovarian cancer,2 to 5 fold
same,"fold better potency than lead compound 1, NCI-60",[5]; prostate cancer,2 to 5 fold
same,"fold better potency than lead compound 1, NCI-60",[5]; renal cancer,2 to 9 fold
same,"fold more potent than previously published lead, NCI-60","[5]; whole panel, maximum",up to 25 fold
same,fold higher potency than lead compound 1 in HeLa and HeLa WT βIII cell lines,HeLa cells; vs 1,1.6 fold
same,"fold more potent than lead compound 1, cell proliferation",MDA-MB-435 cells; vs 1,1.6 fold
COc1ccc(N(C)c2ncnc3[nH]c4ccccc4c23)cc1 [Compound 3],EC50/IC50 Ratio,A-10 cells [3],9.2
same,Rr Value (WT β3/HeLa),HeLa WTβIII cells [4],0.8
same,Rr Value (M6/6/SK-OV-3),SK-OV-3 MDR1-M6/6 cells,1.4
"COc1ccc2c(c1)CCCN2c1nc(N)nc2sc3c(c12)CCCC3 [Compound 6, 4-(6-Methoxy-3,4-dihydroquinolin-1(2H)-yl)-5,6,7,8-tetrahydrobenzo[4,5]thieno[2,3-d]-pyrimidin-2-amine]",Rr Value (WT β3/HeLa),HeLa WTβIII cells [1],0.7
same,EC50/IC50 Ratio,A-10 cells [2],2.0
same,"fold less potent than 4, antiproliferative effects",MDA-MB-435 cells,6 fold
"COc1cccc2cc(N(C)c3nc(C)nc4sc5c(c34)CCCC5)ccc12 [Compound 13, N-(5-methoxynaphthalen-2-yl)-N,2-dimethyl-5,6,7,8-tetrahydrobenzo[4,5]thieno[2,3-d]pyrimidin-4-amine]",Rr Value (WT β3/HeLa),HeLa WTβIII cells [1],0.8
same,EC50/IC50 Ratio,A-10 cells [2],1.5
same,fold decrease in potency compared to 8,MDA-MB-435 cells,1.5- to 2 fold
"CSc1ccc(N(C)c2nc(N)nc3sc4c(c23)CCCC4)cc1 [Compound 5, N4-methyl-N4-(4-(methylthio)phenyl)-5,6,7,8-tetrahydrobenzo[4,5]thieno[2,3-d] pyrimidine-2,4-diamine]",Rr Value (WT β3/HeLa),HeLa WTβIII cells [1],0.7
same,EC50/IC50 Ratio,A-10 cells [2],1.8
same,fold more potent than lead compound 2 as inhibitor of tubulin assembly,Bovine brain tubulin; vs 2,5 fold
same,"fold more potent than standard CA-4, tubulin assembly",Bovine brain tubulin,2 fold
same,fold higher potency than lead compound 2 in HeLa and HeLa WT βIII cell lines,HeLa cells; vs 2,2 fold
same,"fold more potent than 2, antiproliferative effects",MDA-MB-435 cells; vs 2,2.3 fold
"COc1ccc(N(C)c2ncnc3sc4c(c23)CCCC4)cc1 [Compound 7, N-(4-methoxyphenyl)-N-methyl-5,6,7,8-tetrahydrobenzo[4,5]thieno[2,3-d]pyrimidin-4-amine]",Rr Value (WT β3/HeLa),HeLa WTβIII cells [1],0.7
same,EC50/IC50 Ratio,A-10 cells [2],1.2
same,fold more potent than lead compound 3 as inhibitor of tubulin assembly,Bovine brain tubulin; vs 3,5 fold
same,"fold more potent than standard CA-4, tubulin assembly",Bovine brain tubulin,2 fold
same,fold higher potency than lead compound 3 in HeLa and HeLa WT βIII cell lines,HeLa cells; vs 3,2 fold
same,"fold more potent than compound 3, antiproliferative effects",MDA-MB-435 cells; vs 3,3.5 fold
"CSc1ccc(N(C)c2nc(C)nc3sc4c(c23)CCCC4)cc1 [Compound 10, N,2-dimethyl-N-(4-(methylthio)phenyl)-5,6,7,8-tetrahydrobenzo[4,5]thieno[2,3-d]pyrimidin-4-amine]",Rr Value (WT β3/HeLa),HeLa WTβIII cells [1],0.7
same,EC50/IC50 Ratio,A-10 cells [2],1.8
same,"fold more potent than standard CA-4, tubulin assembly",Bovine brain tubulin,2 fold
same,fold lower potency than 5 in both assays,"MDA-MB-435 cells; vs 5, microtubule depolymerization and antiproliferative assays",2 fold
"COc1ccc(N(C)c2nc(C)nc3sc4c(c23)CCCC4)cc1 [Compound 8, N-(4-methoxyphenyl)-N,2-dimethyl-5,6,7,8-tetrahydrobenzo[4,5]thieno[2,3-d]pyrimidin-4-amine]",Rr Value (WT β3/HeLa),HeLa WTβIII cells [1],0.9
same,EC50/IC50 Ratio,A-10 cells [2],1.0
same,"fold more potent than standard CA-4, tubulin assembly",Bovine brain tubulin,2 fold
same,"fold less potent than 4, antiproliferative effects",MDA-MB-435 cells,5.8 fold

# Source: article PMC8747035, “Design, Synthesis, and Biological Evaluation of 5,6,7,8-Tetrahydrobenzo[4,5]thieno[2,3-d]pyrimidines as Microtubule Targeting Agents” (Molecules, 2022)
